Source: patent publication US7390630B1, “Method of identifying a compound that selectively inhibits cytokine-stimulated T cell induced production of TNF-alpha by monocytes” (Mathilda and Terence Kennedy Institute of Rheumatology Trust, priority 1999, dated 2008)
For part of these data: At least one compound was matched to its structure with a doubt left. Some results were stated once for a whole list of compounds, not compound by compound.

What was measured:
[1] = tested on: monocyte TNFα production induced by cytokine stimulated T cells (Tck cells); test: Tck cell-induced TNFα production by monocytes (co-culture, ELISA); format: cell-based, Human; conditions: T cells:monocytes 5:1, 18 h co-culture
Description: Human peripheral blood T cells and monocytes were isolated from single donor plateletpheresis residues (purchased from the North London Blood Transfusion service, Colindale, GB). Mononuclear cells were isolated by Ficoll/Hypaque centrifugation (specific density 1.077 g/ml, Nycomed Pharma AS, Oslo, Norway), prior to cell separation in a Beckman JE6 elutriator. Elutriation was performed in culture medium containing 1% heat-inactivated foetal calf serum (FCS) using methods known in the art (see Sebbag et al., 1997, Parry et al., 1997). T cell and monocyte purity were assessed by flow cytometry (see Sebbag et al., 1997). […]
Reagents for the TNFα ELISA were provided by Dr. W. Buurman (Rijks Universiteit Limburg, Maastricht, Netherlands). […] The rabbit polyclonal antibody was detected using a peroxidase-conjugated goat anti-rabbit IgG (H+L) (Jackson Immunoresearch Laboratories Inc., Westgrove, PE, USA) followed by an appropriate substrate. […]
Monocytes were treated with M-CSF for 2 days as described above, infected with adenovirus containing either an insert encoding IκBα (AdvIκBα) or no insert (Adv0). The effect of IκBα over-expression on T cell-induced monocyte (ratio 5:1) TNFα production was then determined.

[2] = tested on: spontaneous TNFα production in total RA synovial membrane cultures; test: Spontaneous TNFα production in RA synovial membrane cultures; format: cell-based, Human; conditions: increasing concentrations, 48 h, cultures from eight individuals

SMILES	enhancement of monocyte TNFα production induced by Tck cells [1]	effect on spontaneous TNFα production in total RA synovial membrane cultures [2]
O=c1cc(N2CCOCC2)oc2c(-c3ccccc3)cccc12 [LY294002]	3-4 fold	–
COC[C@H]1OC(=O)c2coc3c2[C@@]1(C)C1=C(C3=O)[C@@H]2CCC(=O)[C@@]2(C)C[C@H]1OC(C)=O [Wortmannin, wortmannin]	3-4 fold	dose-dependently enhanced
